# Reference: PubChem BioAssay AID1471 (National Center for Advancing Translational Sciences (NCATS), 2008)
# Among all 230,000 compounds or so, about 310 (0.13%) were called active. Inconclusive results, whose numbers are uncertain, are shown with a selection of clear calls. The call rests on the fitted dose curve; in most records, active means well fitted activation curve with a large enough effect; inconclusive means small, poorly fitted or top-dose-only effect; inactive means no such curve, though single readings can be large or run the other way. Where the call is inconclusive, the potency comes from a doubtful curve fit.
# Experiment: qHTS Multiplex Assay to Identify Dual Action Probes in a Cell Model of Huntington: Cytoprotection (ATP); further: nearly all actives have a fitted effect of over 45% in size;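 on cytoprotection (ATP increase): toxic huntingtin expression switched on by the ecdysone agonist tebufenozide; % of control where 0% means no effect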
# Conditions: PC12 HTT-Q103 induced, ATP luminescence, 40 h; cytoprotection (ATP increase): at 56.4 µM (top of the series) unless noted
# Summary of the method: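 PC12 cells stably carrying ecdysone-inducible Htt exon 1 (Q103)–GFP were induced with 100 nM tebufenozide (final) alongside library compounds in a dose series. Cytoprotection was scored as retained ATP by ATPlite luminescence.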
# Potency means the concentration at half of the fitted maximal effect.
SMILES,Potency,cytoprotection (ATP increase)
Cc1cccc(Oc2sc(C(=O)c3ccccc3)c(N)c2C#N)c1,"inconclusive: 14100 nM [activator, single point]",
Cc1[nH][nH]c(=O)c1N=Nc1ccccc1,"inconclusive: 35500 nM [activator, single point]",
CCN1CCN(S(=O)(=O)c2cccc([N+](=O)[O-])c2)CC1,,inactive: -3.12% [at 10 µM]
Cc1nn(Cc2ccc(C(=O)Nc3ccccc3C(F)(F)F)o2)c(C)c1Br,"inconclusive: 5620 nM [activator, single point]",
CCCN1CCN(CCCNC(=O)c2cc3c(=O)[nH]c4ccc(C)cc4c3s2)CC1,"inconclusive: 794 nM [activator, single point]",
CCN(CC)S(=O)(=O)c1ccc(O)c(NS(=O)(=O)c2ccccc2F)c1,,inactive: 24.2% [at 10 µM]
Clc1ccc(-c2nnc(Sc3nc4ccccc4o3)c3ccccc23)cc1,"inconclusive: 708 nM [activator, full curve, poor fit]",
Cc1nn(C)c(C(=O)N/N=C/c2cccc3ccccc23)c1Cl,"inconclusive: 794 nM [activator, single point]",
COC(=O)C1(C(=O)OC)C/C=C\Cc2ccccc2[C@@H]1C[N+](=O)[O-],"inconclusive: 5620 nM [activator, single point]",
CC(C)c1c(O)nc(SCCC(=O)O)[nH]c1=O,"inconclusive: 1120 nM [activator, single point]",
CN1CC[C@@]2(CCCN(S(=O)(=O)c3ccccc3)C2)C1,"inconclusive: 79.4 nM [activator, partial curve, poor fit]",
CCC(C)Nc1nc(C)nc2c1oc1ccccc12 (stereo unspecified),"inconclusive: 3550 nM [activator, partial curve]",
O=C(O)c1cc(O)c2c(c1)C(=O)c1cccc(O)c1C2=O,inactive,
Cc1ccc(OCCN2CCN(CC(O)Cn3c4ccccc4c4ccccc43)CC2)cc1 (stereo unspecified),,inactive: -21.7% [at 10 µM]
O=C1CC(NCc2ccc3c(c2)OCO3)C(=O)N1CCc1ccccc1 (stereo unspecified),,inactive: -8.03%
Cc1ccc(NC(=O)COC(=O)Cc2ccsc2)cc1S(=O)(=O)N1CCOCC1,,inactive: -17.9% [at 10 µM]
CC(C)NC(=O)c1onc(CSc2ccc(C(C)C)cc2)c1C(=O)O,,inactive: -22.1%
COc1ccc(N2C(=O)CC(n3cnc4ccccc43)C2=O)cc1 (stereo unspecified),"inconclusive: 3160 nM [activator, partial curve]",
COC(=O)[C@@]1(Cc2ccc(OC)cc2)[C@H]2c3cc(C(=O)N4CCCC4)n(CCSCCO)c3C[C@H]2CN1C(=O)c1ccccc1,"inconclusive: 31600 nM [activator, single point]",
O=C(O)c1cccc(NC2=C(N3CCOCC3)C(=O)c3ccccc3C2=O)c1,,inactive: 4.7% [at 10 µM]
C=C1C(=O)O[C@@H]2[C@@H]1CC/C(C)=C\CC[C@@]1(C)O[C@H]21,"inconclusive: 398 nM [activator, partial curve, poor fit]",

# 3 records picked at random from the list so far, as already listed:
SMILES,Potency,cytoprotection (ATP increase)
Cc1cccc(Oc2sc(C(=O)c3ccccc3)c(N)c2C#N)c1,"inconclusive: 14100 nM [activator, single point]",
Cc1nn(Cc2ccc(C(=O)Nc3ccccc3C(F)(F)F)o2)c(C)c1Br,"inconclusive: 5620 nM [activator, single point]",
COc1ccc(N2C(=O)CC(n3cnc4ccccc43)C2=O)cc1 (stereo unspecified),"inconclusive: 3160 nM [activator, partial curve]",

# (cont.)

SMILES,Potency,cytoprotection (ATP increase)
CC1CCN(S(=O)(=O)c2cccc(C(=O)N(C)C3CCS(=O)(=O)C3)c2)CC1 (stereo unspecified),"inconclusive: 31600 nM [activator, single point]",
Cc1snc(SCC(=O)c2ccc([N+](=O)[O-])cc2)c1C#N,"inconclusive: 316 nM [activator, partial curve]",
Cc1oc(=O)c(NC(=O)c2ccccc2)cc1C(=O)c1ccccc1,"inconclusive: 31600 nM [activator, single point]",
CN[C@@H]1[C@H](O[C@H]2[C@H](O[C@H]3[C@H](O)[C@@H](O)[C@H](N=C(N)N)[C@@H](O)[C@@H]3N=C(N)N)O[C@@H](C)[C@]2(O)C=O)O[C@@H](CO)[C@H](O)[C@H]1O,"inconclusive: 891 nM [activator, full curve]",
O=C(NCc1ccco1)Nc1cccc([N+](=O)[O-])c1,,inactive: 6.1% [at 10 µM]
COc1cccc(N2C(=O)CC(N3CCc4ccccc4C3)C2=O)c1 (stereo unspecified),"inconclusive: 1120 nM [activator, single point]",
Cc1ccc(OCC(=O)NCC2CCCO2)c(C)c1 (stereo unspecified),,inactive: -18% [at 10 µM]
O=C(/C=C/c1ccc(O)c(O)c1)O[C@H]1C[C@@](O)(C(=O)O)CC(O)C1O (stereo partly specified),"inconclusive: 1780 nM [activator, full curve, poor fit]",
O=C(CSc1ccccn1)Nc1ccc2c(c1)OCCO2,"inconclusive: 708 nM [activator, partial curve]",
O=C(Nc1nonc1NC(=O)c1cccs1)c1cccs1,"inconclusive: 17800 nM [activator, single point]",
CN(CC(=O)NCc1ccc2c(c1)OCO2)S(=O)(=O)c1ccc(Br)s1,,inactive: -7.92%
CC1(C)CO[C@@H](CC(=O)O)CN1,"inconclusive: 794 nM [activator, full curve, poor fit]",
O=C(COC(=O)CC(c1ccccc1)c1ccccc1)NCc1ccc(Cl)cc1,"inconclusive: 1120 nM [activator, partial curve, poor fit]",
CCC(CC)C(=O)Nc1ccc(C(=O)Nc2cc(C)on2)cc1,"inconclusive: 35500 nM [activator, single point]",
COc1cc(C)ccc1S(=O)(=O)n1nc(C)cc1C,,inactive: 11.1% [at 10 µM]
Cc1ccc(Oc2ncccc2/C=N/OCc2ccc(Cl)cc2Cl)cc1,"inconclusive: 100 nM [activator, full curve]",
CC(C)NC(=O)N1CC[C@@]2(CCCN(S(C)(=O)=O)C2)C1,"inconclusive: 20000 nM [activator, partial curve]",
CCc1nnc(NC(=O)c2ccc(S(=O)(=O)N3CCCc4ccccc43)cc2)o1,,inactive: -69.4% [at 10 µM]
CCOC(=O)CC(NC(=O)c1ccccc1F)c1ccc(C)cc1 (stereo unspecified),"inconclusive: 5010 nM [activator, single point]",
Cn1cnc2c(NCc3ccccc3)nc(NCCO)nc21,"inconclusive: 708 nM [activator, single point]",
